# No constants are given. Whether binding was seen depends on the method and setting. Some binding calls cover weakened binding; strength is not graded here.
# Target: Receptor tyrosine-protein kinase Erbb-2 (UniProt P04626)
# Assay: flow cytometry on SKOV3 cells, Alexafluor 488 conjugate
binder,measurement,value
"chimeric A19 (antibody, V domains shown) VH: QVKLQESGAELMKPGASVKISCKATGYTFSNYWIEWVKQRPGHGLEWIGEILPGSDSTNYNEKFKGKATFTADTSSNTAYMQLSSLTSEDSAVYYCARGGSNYGYYFDYWGQGTTVTVSS VL: DILMTQSHKFMSTSVGDRVSIPCKASQDVGTAVAWYQQKPGQSPKLLIYWASTRHTGVPDRFTGSGSGTDFTLSISNVQSEDLADYFCQQYSSYRTFGGGTKLEIKR",binding,binds
